Measurements: PMC11966828
No constants are given. Whether binding was seen depends on the method and setting. In cells and extracts the contact can be indirect. Some entries that bind do so weakly or less than the wild type. For some assays here: Where a sequence is shown, tags or fusion partners need not be part of it.

T1: Flag-tagged edited CYP1A1 (CYP1A1_I462V) (UniProt P04798)
T1 sequence: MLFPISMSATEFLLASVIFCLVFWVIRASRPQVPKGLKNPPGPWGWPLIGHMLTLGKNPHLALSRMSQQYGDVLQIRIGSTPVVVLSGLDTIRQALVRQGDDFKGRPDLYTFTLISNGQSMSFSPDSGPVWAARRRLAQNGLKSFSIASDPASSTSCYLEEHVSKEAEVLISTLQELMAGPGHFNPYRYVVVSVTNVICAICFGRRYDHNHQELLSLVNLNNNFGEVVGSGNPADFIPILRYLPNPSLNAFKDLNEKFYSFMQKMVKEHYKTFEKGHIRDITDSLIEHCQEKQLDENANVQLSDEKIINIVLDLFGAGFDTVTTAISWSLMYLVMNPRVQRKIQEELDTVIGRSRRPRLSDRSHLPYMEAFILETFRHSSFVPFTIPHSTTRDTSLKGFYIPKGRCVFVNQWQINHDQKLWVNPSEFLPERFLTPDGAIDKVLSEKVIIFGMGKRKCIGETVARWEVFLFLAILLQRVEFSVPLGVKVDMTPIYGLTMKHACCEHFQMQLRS

T2: endogenous CYP1A1 I462V of A549^I462V cells (human (endogenous in A549)) (UniProt P04798)
T2 sequence: T1 sequence

B1: HA-tagged heme oxygenase-1 (HO-1) (enzyme, UniProt P09601 1-288)
chain: MERPQPDSMPQDLSEALKEATKEVHTQAENAEFMRNFQKGQVTRDGFKLVMASLYHIYVALEEEIERNKESPVFAPVYFPEELHRKAALEQDLAFWYGPRWQEVIPYTPAMQRYVKRLHEVGRTEPELLVAHAYTRYLGDLSGGQVLKKIAQKALDLPSSGEGLAFFTFPNIASATKFKQLYRSRMNSLEMTPAVRQRVIEEAKTAFLLNIQLFEELQELLTHDTKDQSPSRAPGLRQRASNKVQDSAPVETPRGKPPLNTRSQAPLLRWVLTLSFLVATVAVGLYAM
B2: endogenous heme oxygenase-1 (HO-1) of A549 and A549^I462V cells (enzyme, UniProt P09601 1-288)
chain: B1 chain

Key:
[1] = target: T1, Flag-tagged edited CYP1A1 (CYP1A1_I462V); experiment: co-IP; 293T cells cotransfected with HA-HO-1 and Flag-CYP1A1 or Flag-CYP1A1-edited, lysed 24 h after transfection; anti-Flag antibody with protein G magnetic beads, 20 min at room temperature, six washes; immunoblot with anti-HA; IgG as negative control
[2] = target: T2, endogenous CYP1A1 I462V of A549^I462V cells (human (endogenous in A549)); experiment: co-IP; endogenous co-IP from A549 or A549^I462V cells with an anti-CYP1A1 antibody; endogenous HO-1 detected by blot

Binder | binding [1] | binding [2]
B1 | binds | 
B2 |  | binds
